Reference: PubChem BioAssay AID2551 (National Center for Advancing Translational Sciences (NCATS), 2010)
The whole screen tested about 310,000 compounds, of which about 17,000 (5.5%) were called active. This list was built around the results that the source calls inconclusive (neither active nor inactive); the mix of calls is not that of the screen. Calls follow the shape of the dose curve; as a rule, active = well fitted inhibition curve with a large enough effect; inconclusive = small, poorly fitted or top-dose-only effect, or effect the other way; inactive = no such curve, though single readings can be large or run the other way. Where the call is inconclusive, the potency comes from a doubtful curve fit.

Chains of the proteins cited; added tags and fusions are not shown. Lines headed by an entry give the natural chain unless they say otherwise; changes in a name come on top.
UniProt P51450: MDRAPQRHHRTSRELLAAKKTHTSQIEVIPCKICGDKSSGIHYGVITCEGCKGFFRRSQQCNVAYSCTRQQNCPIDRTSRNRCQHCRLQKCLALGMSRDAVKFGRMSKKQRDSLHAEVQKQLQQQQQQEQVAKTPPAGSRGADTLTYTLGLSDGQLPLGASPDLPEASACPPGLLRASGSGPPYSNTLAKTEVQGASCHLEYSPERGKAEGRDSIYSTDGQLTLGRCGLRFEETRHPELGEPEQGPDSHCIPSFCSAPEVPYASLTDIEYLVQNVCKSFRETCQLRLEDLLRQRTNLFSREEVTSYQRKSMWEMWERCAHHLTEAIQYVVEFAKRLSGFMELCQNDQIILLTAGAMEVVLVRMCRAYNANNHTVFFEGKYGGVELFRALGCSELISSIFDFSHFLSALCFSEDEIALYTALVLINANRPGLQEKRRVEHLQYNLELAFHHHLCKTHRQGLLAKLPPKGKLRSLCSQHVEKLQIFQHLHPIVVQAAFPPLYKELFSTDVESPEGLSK

molecular target: Nuclear receptor ROR-gamma (Mus musculus) (UniProt P51450); experiment: qHTS for inhibitors of ROR gamma transcriptional activity; conditions: Drosophila S2 Gal4-RORgamma UAS-luciferase reporter, 20 h; activity change, negative = inhibition: at 53.6 µM (top of the series); also: nearly all actives have a fitted effect of over 60% in size
Summary of the method: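 Compounds are pin-transferred onto Drosophila Schneider cells expressing a copper-inducible Gal4–ROR gamma transactivation domain fusion. After 1 hr, copper sulfate is added to 700 uM final; luciferase is read 20 hr later.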
% is scaled to controls: 0 for no effect and ±100 for the full control effect; potency is read from the fitted curve at half-maximal effect.

Structure (SMILES)	Potency	activity change, negative = inhibition
COc1ccc(/C(C)=N/NC(=O)CNC(=O)CCc2ccccc2)c(OC)c1	inconclusive: 20 µM [inhibitor, single point]	–
Clc1ccc(Nc2nc(-c3cccs3)cs2)nc1	inconclusive: 0.0045 µM [activator, full curve, poor fit]	–
Cc1ccc(S(=O)(=O)CCc2nnc(NC(=O)c3ccccn3)s2)cc1	inconclusive: 5.01 µM [inhibitor, full curve, poor fit]	–
O=[N+]([O-])c1cccc2ccc(/C=C/c3ccc(F)cc3)nc12	inconclusive: 10 µM [activator, partial curve]	–
Cc1cccc(NC(=O)/C=C/c2cccs2)n1	inconclusive: 31.6 µM [inhibitor, single point]	–
COc1ccc(NC(=O)c2cc(-c3ccccc3Cl)no2)cc1	inconclusive: 11.2 µM [inhibitor, partial curve]	–
O=C(NCc1ccc2c(c1)OCO2)Nc1ccc(F)cc1	inactive	–
COc1ccccc1NC(=O)C(=O)NNC(=O)c1ccco1	inconclusive: 11.2 µM [inhibitor, single point]	–
Cc1c(Cl)cccc1NC(=S)N1CCCN(Cc2ccccc2F)C1	active: 12.6 µM	–
CCOc1ccc(S(=O)(=O)N2CCN(C(=O)c3cc4c(s3)CCCC4)CC2)cc1	inconclusive: 35.5 µM [activator, single point]	–
O=C(Nc1cccc(NC(=O)c2cccc(F)c2)c1)c1ccccc1	inactive	–
CC(=O)C1=C(C)NC(SCC(=O)c2ccc(Cl)c(Cl)c2)=C(C#N)C1c1ccco1 (centres undefined)	inconclusive: 35.5 µM [inhibitor, single point]	–
Cc1ccnc(NC(=O)c2ccc(Cl)c([N+](=O)[O-])c2)c1	inconclusive: 15.8 µM [inhibitor, single point]	–
c1ccc(C2CC(c3ccccc3)n3c(nc4ccccc43)N2)cc1 (centres undefined)	inconclusive: 10 µM [inhibitor, partial curve]	–
CCCC(=O)NC(c1ccco1)c1cc(Cl)c2cccnc2c1O (centres undefined)	active: 3.98 µM	–
O=C(CCc1nnc(Cc2ccc(-c3ccccc3)cc2)o1)NCCc1cccnc1	inactive	–
O=C(Nc1nnc(CCc2ccccc2)s1)C1CCCO1 (centres undefined)	inconclusive: 12.6 µM [activator, partial curve]	–
Cc1ccccc1CS(=O)(=O)Cc1ccc(C(=O)NCc2ccco2)o1	inactive	–
Cc1cc[n+](-c2[nH]c(=O)sc2/C=N/NC([S-])=Nc2ccccc2)cc1	inconclusive: 0.501 µM [inhibitor, full curve, poor fit]	–
Cc1cc(Br)c2c(c1)=C(c1sc(N3CCCCCC3)nc1O)C(=O)N=2	inconclusive: 0.447 µM [activator, single point]	–
CC(C)CCC1(CCNC(=O)c2cccs2)CCOC(C)(C)C1 (centres undefined)	inconclusive: 11.2 µM [activator, partial curve]	–
CCOCC(=O)Nc1sc2c(c1C(=O)OCC)CCCC2	inconclusive: 35.5 µM [activator, single point]	–
COc1cccc(S(=O)(=O)Nc2ccc(C(=O)N3CCCCCC3)cc2)c1	active: 8.91 µM	–
COc1ccc(NC(=S)N2CCN(C/C=C/c3ccccc3)CC2)c(OC)c1	inactive	–
CNC(=O)c1sc(Nc2ccc(OCc3ccccc3)cc2)nc1C	inconclusive: 12.6 µM [activator, partial curve]	–

Looked up above.
For Potency, COc1ccc(NC(=O)c2cc(-c3ccccc3Cl)no2)cc1 shows inconclusive: 11.2 µM [inhibitor, partial curve]
For Potency, c1ccc(C2CC(c3ccccc3)n3c(nc4ccccc43)N2)cc1 (centres undefined) shows inconclusive: 10 µM [inhibitor, partial curve]
For Potency, COc1ccc(NC(=S)N2CCN(C/C=C/c3ccccc3)CC2)c(OC)c1 shows inactive

Next results:

Structure (SMILES)	Potency	activity change, negative = inhibition
COCc1cc(C)nc(OCC(=O)N/N=C/c2ccc(O)cc2O)c1C#N	inactive	–
COc1ccc(N/C=C(\C#N)S(=O)(=O)c2ccc(Cl)cc2)c(OC)c1	inactive	–
Cc1ccc(S(=O)(=O)Nc2ncc(C(F)(F)F)cc2Cl)cc1	inconclusive: 10 µM [activator, partial curve]	–
COc1ccc(NC(=S)Nc2ccc3nccnc3c2)cc1	inconclusive: 25.1 µM [inhibitor, single point]	–
O=C(Nc1ccc2c(c1)ncn2-c1ccccc1)c1ccco1	inconclusive: 2 µM [activator, partial curve]	–
COc1ccc(NC(=O)/C=N/O)cc1	inactive	–
Cc1ccc(S(=O)(=O)n2nccc2-c2c(-c3ccc(Cl)cc3)noc2C)cc1	inconclusive: 20 µM [activator, partial curve]	–
CC(C)(C)OC(=O)[C@H](Cc1ccccc1)NC(=O)c1nc[nH]c1C(=O)N1CCc2ccccc2C1	inconclusive: 22.4 µM [inhibitor, single point]	–
CCOc1cc(/C=C/c2nc3cc(C)c(C)cc3s2)ccc1OCC(=O)N1CCOCC1	inconclusive: 12.6 µM [activator, single point]	–
CCOC(=O)C(C)/C(C)=N/NC(N)=S (centres undefined)	active: 0.708 µM	–
CCCCN(C(=O)c1ccco1)c1nnc(-c2cc(OC)c(OC)c(OC)c2)s1	inconclusive: 0.631 µM [inhibitor, single point]	–
O=C(O)CCCc1nc(-c2ccccc2)no1	active: 14.1 µM	–
Cc1cc(S(=O)(=O)NCc2ccco2)c(C)cc1Cl	inactive	–
NS(=O)(=O)c1ccc(NC(=S)N2CCN(C(=O)C3CCCO3)CC2)cc1 (centres undefined)	inactive	–
CN(Cc1ccc(F)cc1)Cc1nc(-c2ccccc2)no1	inactive	–
CCN(CC)C(=S)SCC(=O)Nc1ccc(F)cc1	inconclusive: 11.2 µM [activator, partial curve]	–
CC[C@H](C)[C@@H](CN[C@H](C)CNC)NCCC(c1ccccc1)c1ccccc1	inconclusive: 35.5 µM [inhibitor, single point]	–
Nc1c(Cl)ncnc1N/N=C/c1cccnc1	inactive	–
CCOC(=O)Nc1nnc(-c2ccccc2OC)s1	inconclusive: 1.26 µM [activator, partial curve, poor fit]	–
COc1cc(/C=C/C(=O)N2CCC=CC2=O)cc(OC)c1OC	active: 3.55 µM	–
COc1ccccc1NC(=O)CNC(=O)c1ccc(Br)o1	inactive	–
Cc1nc(SC2CCOC2=O)c2c(C)c(C)sc2n1 (centres undefined)	active: 11.2 µM	–
Cc1ccc(NC2=C(C(=O)c3ccccc3)N(C)S(=O)(=O)c3ccccc32)cc1	inactive	–
C[C@@H](CN(C)C)CN1c2ccccc2Sc2ccccc21	–	inactive: 3.03% [at 2.98 µM]
